In the supplement of paper PMC10727501:
Some of the results follow. This data set is noisy: repeats of one test often differ as much as different tests do.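 Free-swimming zebrafish larvae were assessed for O-bend response probability to dark flashes (naive: first five; training: remaining flashes across four 60-flash blocks; test: later 60-flash block) and for OMR turning toward alternating leftward/rightward LED motion. Six treated larvae were compared against sixty 0.1% DMSO controls; hits required |SSMD|≥2.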

tested on: Danio rerio larvae (5 dpf, TLF); assay: OMR-Perf (SSMD vs DMSO vehicle); higher = higher than vehicle (e.g. higher dark-flash O-bend response probability, or better optomotor performance); conditions: 10 µM; pre-incubation: 30-90 min

SMILES | OMR-Perf
Cc1cnc(Nc2ccc(OCCN3CCCC3)cc2)nc1Nc1cccc(S(=O)(=O)NC(C)(C)C)c1 | -0.384
COC(=O)[C@H](c1ccccc1Cl)N1CCc2sccc2C1.O=S(=O)(O)O [Clopidogrel] | -0.66
CN1CCN(S(=O)(=O)c2ccc(-c3cnc(N)c(C(=O)Nc4cccnc4)n3)cc2)CC1 | 0.345
Cc1ccc(O)c([C@H](CCN(C(C)C)C(C)C)c2ccccc2)c1.O=C(O)[C@H](O)[C@@H](O)C(=O)O [Tolterodine tartrate] | -0.594
C=C[C@]1(C)C[C@@H](OC(=O)CSC(C)(C)CNC(=O)[C@H](N)C(C)C)[C@@]2(C)[C@H](C)CC[C@]3(CCC(=O)[C@H]32)[C@@H](C)[C@@H]1O.Cl [Valnemulin HCl] | -0.325
CN1CCN(c2c(F)cc3c(=O)c(C(=O)O)cn(CCF)c3c2F)CC1 [Fleroxacin (Quinodis)] | -0.233
CN1CCc2nc(C(=O)N[C@H]3C[C@H](C(=O)N(C)C)CC[C@@H]3NC(=O)C(=O)Nc3ccc(Cl)cn3)sc2C1 [Edoxaban] | -0.232
CC(C)CN(C[C@@H](O)[C@H](Cc1ccccc1)NC(=O)O[C@H]1CCOC1)S(=O)(=O)c1ccc(N)cc1 [Amprenavir] | -0.116
O=C(O)c1ccc(O)c2ncccc12 | 0.72
CN(C)Cc1ccc(S(=O)(=O)n2ccc(/C=C/C(=O)NO)c2)cc1 [Resminostat] | 0.42
Oc1c(Cl)cc(Cl)c2cccnc12 [Chloroxine] | -0.886
Cn1c(N2CCCCS2(=O)=O)nc(C(=O)NCc2ccc(F)cc2)c(O)c1=O | -0.949
CCOC(=O)c1ccc(OC(=O)CCCCCNC(=N)N)cc1.CS(=O)(=O)O [Gabexate Mesylate] | -0.274
CN(C)CC[C@H](CSc1ccccc1)Nc1ccc(S(=O)(=O)NC(=O)c2ccc(N3CCN(Cc4ccccc4-c4ccc(Cl)cc4)CC3)cc2)cc1[N+](=O)[O-] | 0.194
CN(N=O)C(=O)N[C@@H]1[C@@H](O)[C@H](O)[C@@H](CO)O[C@@H]1O [Streptozotocin (STZ)] | -0.298
CC(=O)Nc1cccc2c1c(Sc1ccc(Cl)cc1)c(C)n2CC(=O)O | -0.111
Cc1nccn1CC1CCc2c(c3ccccc3n2C)C1=O (configuration not stated) [Ondansetron (Zofran)] | -0.224
CCCCOc1ccc(OCCCN2CCOCC2)cc1.Cl [Pramoxine HCl] | -0.154
Cn1cncc1[C@@](N)(c1ccc(Cl)cc1)c1ccc2c(c1)c(-c1cccc(Cl)c1)cc(=O)n2C [Tipifarnib] | -0.764
CC(=O)OCC(=O)[C@]12N=C(C)O[C@@H]1C[C@H]1[C@@H]3CCC4=CC(=O)C=C[C@]4(C)[C@@H]3[C@H](O)C[C@@]12C [Deflazacort] | 0.366
CN(C)CCCOc1nn(Cc2ccccc2)c2ccccc12.Cl [Benzydamine HCl] | -0.374
CCCCCCNC(=O)n1cc(F)c(=O)[nH]c1=O [Carmofur] | -0.77
C#CCN[C@H]1CCc2ccccc21.CS(=O)(=O)O [Rasagiline Mesylate] | -0.227
Cc1nc2n(c(=O)c1CCN1CCC(c3noc4cc(F)ccc34)CC1)CCC[C@H]2O [Paliperidone (Invega)] | -0.714
Cc1nc(-c2ccc(OCC(C)C)c(C#N)c2)sc1C(=O)O [Febuxostat] | -1.3
CCCC(CCC)C(=O)[O-].[Na+] [Valproic acid sodium salt (Sodium valproate)] | -0.774
COc1cc2ncnc(Nc3ccc(F)c(Cl)c3)c2cc1NC(=O)/C=C/CN1CCCCC1 | -0.355

A different layout for part of the listing above.
SMILES	OMR-Perf
CC(C)CN(C[C@@H](O)[C@H](Cc1ccccc1)NC(=O)O[C@H]1CCOC1)S(=O)(=O)c1ccc(N)cc1 [Amprenavir]	-0.116
CC(=O)Nc1cccc2c1c(Sc1ccc(Cl)cc1)c(C)n2CC(=O)O	-0.111
